# From US9340575B2 (INSTITUT NATIONAL DE LA RECHERCHE SCIENTIFIQUE, priority 2011, dated 2016)
# Strings that start with PEPTIDE1 are HELM notation: dots part the residues, brackets hold end groups and non-standard residues. Square brackets hold non-standard residues; d marks the D form. pGlu = O=C1CC[C@@H](C(=O)O)N1
# Assay: general procedure: Fmoc solid-phase peptide synthesis; Wang polystyrene resin (Boc-Val-CM resin for chelator conjugates); TBTU/DIPEA
# [1] = whole synthesis, 214 nm, one disulfide bridge, sequence written open
# [2] = conjugation step, 214 nm, one disulfide bridge, sequence written open
# [3] = whole synthesis, 229 nm, one disulfide bridge, sequence written open
Substance,"final HPLC purity (whole synthesis, 229 nm) [%]",final HPLC purity [3] [%],other results
H-Ala-Cys-Phe- ? Lys-Tyr-Cys-Val-OH [listing 1 of 5 here],98,–,–
H-Ala-Cys-Phe-Phe(4-I)-Lys-Tyr-Cys-Val-OH,–,–,final HPLC purity [1]: ≧98%
DOTA-Ala-Cys-Phe-Bip-Lys-Tyr-Cys-Val-OH,–,–,final HPLC purity [2]: ≧98%
"PEPTIDE1{A.[Pen].F.[Tiq].K.Y.C.V}$PEPTIDE1,PEPTIDE1,2:R3-7:R3$$$V2.0",98,–,–
H-Ala-Cys-Phe- -Lys-Tyr-Cys-Val-OH,–,98,–
H-Ala-Cys-Phe-Tic-Lys-Tyr-Cys-Val-OH,–,97,–
"PEPTIDE1{A.C.F.[Tpi].[Orn].Y.C.V}$PEPTIDE1,PEPTIDE1,2:R3-7:R3$$$V2.0",98,–,–
NOTA-Ala-Cys-Phe-Bip-Lys-Tyr-Cys-Val-OH,–,–,final HPLC purity [2]: ≧98%
H-Ala-Cys-Phe- ? Lys-Tyr-Cys-Val-OH [listing 2 of 5 here],98,–,–
H-Ala-Cys-Phe-Aia-Lys-Tyr-Cys-Val-OH,–,98,–
H-Ala-Cys-Phe-Tpi-Lys-Tyr-Cys-Val-OH,–,97,–
H-Ala-Cys-Phe-Dip-Lys-Tyr-Cys-Val-OH,–,97,–
H-Ala-Cys-Phe-Bip-Lys-Tyr-Cys-Val-OH,–,–,final HPLC purity [1]: ≧98%
H-Ala-Cys-Phe-Phg-Lys-Tyr-Cys-Val-OH,–,97,–
H-Ala-Cys-Phe-Phe(I)-Lys-Tyr-Cys-Val-OH,–,98,–
H-Ala-Cys-Phe-Tiq-Lys-Tyr-Cys-Val-OH,–,98,–
H-Ala-Cys-Phe-Cha-Lys-Tyr-Cys-Val-OH,–,97,–
H-Ala-Cys-Phe- ? Lys-Tyr-Cys-Val-OH [listing 3 of 5 here],97,–,–
H-Ala-Cys-Phe-Tiq-Orn-Tyr-Cys-Val-OH,–,98,–
H-Ala-Cys-Phe-Nal-Lys-Tyr-Cys-Val-OH,–,98,–
[pGlu]HGTAPE-NH2,–,–,"final HPLC purity (whole synthesis, 214 nm): 95%"
H-Ala-Cys-Phe- ? Lys-Tyr-Cys-Val-OH [listing 4 of 5 here],97,–,–
H-Ala-Cys-Phe- ? Lys-Tyr-Cys-Val-OH [listing 5 of 5 here],98,–,–
